PubChem BioAssay AID1508597 – Cure First | 2020

Screen: 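Knock-downs altering ovarian cancer cell survival with or without PARP inhibitor rucaparib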 (primary screen)
Cell system: human ovarian carcinoma lines grown from tumours: OCI-P5x (papillary serous) and OCI-C5x (clear cell)
Reagent: siRNA pool against human genes, 1.25 pmol siRNA per well
Duration: 72 h or 96 h, depending on the cell culture
Conditions: rucaparib 20 µM (about IC30) or vehicle, present until read-out
Rucaparib or vehicle: Rucaparib
Cell line: OCI-C5x (clear cell)
Measurement: 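ATP luminescence measured at 72 or 96 h according to the culture, then normalised and expressed as percent viability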
Scale: viability, normalised: higher = more viable cells remaining
Active means: 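Active when normalised viability falls below 80 percent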
Calls: active = viability under 80%; inactive = viability 80% or more
This is an unselected part of the about 2,100 reagents, in one setting of the screen. 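Calls flag viability under 80% in either arm, not effects specific to rucaparib; the reference for percent is not stated.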 A reagent listed more than once was tested more than once; the source does not tell the runs apart. No sequences are given here. Not given: the 100% reference.

H4C8, technical replicate 1 — viability, normalised (%) = 47.8; activity call = active
H4C8, technical replicate 2 — viability, normalised (%) = 39.4; activity call = active
H4C8, technical replicate 3 — viability, normalised (%) = 42.9; activity call = active
PLCH1, technical replicate 1 — viability, normalised (%) = 82; activity call = inactive
PLCH1, technical replicate 2 — viability, normalised (%) = 66.3; activity call = active
PLCH1, technical replicate 3 — viability, normalised (%) = 57.1; activity call = active
SNRK, technical replicate 1 — viability, normalised (%) = 59.5; activity call = active
SNRK, technical replicate 2 — viability, normalised (%) = 63.4; activity call = active
SNRK, technical replicate 3 — viability, normalised (%) = 56.4; activity call = active
DDX46, technical replicate 1 — viability, normalised (%) = 64.2; activity call = active
DDX46, technical replicate 2 — viability, normalised (%) = 54.2; activity call = active
DDX46, technical replicate 3 — viability, normalised (%) = 48.4; activity call = active
UNC93B1, technical replicate 1 — viability, normalised (%) = 49.6; activity call = active
UNC93B1, technical replicate 2 — viability, normalised (%) = 53.2; activity call = active
UNC93B1, technical replicate 3 — viability, normalised (%) = 39.6; activity call = active
CTCF, technical replicate 1 — viability, normalised (%) = 45.8; activity call = active
CTCF, technical replicate 2 — viability, normalised (%) = 41.6; activity call = active
CTCF, technical replicate 3 — viability, normalised (%) = 42.2; activity call = active
POLK, technical replicate 1 — viability, normalised (%) = 48; activity call = active
POLK, technical replicate 1 — viability, normalised (%) = 62.5; activity call = active
POLK, technical replicate 2 — viability, normalised (%) = 38.2; activity call = active
POLK, technical replicate 2 — viability, normalised (%) = 53.5; activity call = active
POLK, technical replicate 3 — viability, normalised (%) = 60.1; activity call = active
POLK, technical replicate 3 — viability, normalised (%) = 33.1; activity call = active
ATAT1, technical replicate 1 — viability, normalised (%) = 43.9; activity call = active
ATAT1, technical replicate 2 — viability, normalised (%) = 33.2; activity call = active
ATAT1, technical replicate 3 — viability, normalised (%) = 23.7; activity call = active
ELOA3P, technical replicate 1 — viability, normalised (%) = 55; activity call = active
ELOA3P, technical replicate 2 — viability, normalised (%) = 53.4; activity call = active
ELOA3P, technical replicate 3 — viability, normalised (%) = 59.6; activity call = active
MBTD1, technical replicate 1 — viability, normalised (%) = 34.2; activity call = active
MBTD1, technical replicate 2 — viability, normalised (%) = 28.7; activity call = active
MBTD1, technical replicate 3 — viability, normalised (%) = 41.3; activity call = active
AGO2, technical replicate 1 — viability, normalised (%) = 52.6; activity call = active
AGO2, technical replicate 2 — viability, normalised (%) = 68.5; activity call = active
AGO2, technical replicate 3 — viability, normalised (%) = 51; activity call = active
BNIP2, technical replicate 1 — viability, normalised (%) = 49.7; activity call = active
BNIP2, technical replicate 2 — viability, normalised (%) = 64.6; activity call = active
BNIP2, technical replicate 3 — viability, normalised (%) = 69.6; activity call = active
GTF2H3, technical replicate 1 — viability, normalised (%) = 52.1; activity call = active
GTF2H3, technical replicate 2 — viability, normalised (%) = 46.4; activity call = active
GTF2H3, technical replicate 3 — viability, normalised (%) = 38.9; activity call = active
